Laboratory results: PubChem BioAssay AID1224826 (NIAID, 2016)
Assay: 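Knock-downs that raise or lower Tnf reporter signal after endotoxin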 (primary screen). Cell system: RAW264.7 G9 macrophages from mouse bearing reporters for p65 (GFP) and the Tnf promoter (mCherry). Reagents: siRNA pool against mouse genes, 100 nM. Timing: 16 h of LPS stimulation, after 2 days of siRNA transfection. Challenge: bacterial lipopolysaccharide (Salmonella minnesota R595), 10 ng/ml. Measurement: 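Nuclear mCherry signal of the Tnf promoter reporter measured by imaging after background removal, scaled to each plate median and turned into robust z-scores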. Scale: Tnf reporter robust z-score: higher = stronger Tnf promoter reporter signal after LPS; Tnf reporter intensity: higher = stronger Tnf promoter reporter signal. Active means: 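a well counts as active at a score of -1.3 or below (Tlr4 knock-down control median) or above 3 (raised signal); controls and wells holding fewer than 50 cells are excluded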. Calls: active = Tnf reporter clearly lowered or raised; inactive = no clear change in Tnf reporter.
Here is an unselected part of about 17,000 reagents. Over the whole deposit, about 1,110 (6.6%) are marked active. 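Active means lowered or raised reporter signal; replicate intensities are raw and not normalised per plate.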 The numbers tell different reagents against one gene apart. Further read-outs or replicates are left out here. Reagent sequences are not shown.

target | reagent | Tnf reporter robust z-score | fewer than 50 cells in well | Tnf reporter intensity, replicate 1 | activity call
Plgrkt (GeneID 67759) | 1 | -1.3 | enough cells in well | 105 | active
Asic1 (GeneID 11419) | 1 | 0.94 | enough cells in well | 160 | inactive
Or2y14 (GeneID 258464) | 1 | 0 | enough cells in well | 184 | inactive
Rerg (GeneID 232441) | 1 | 0.97 | enough cells in well | 139 | inactive
Atad1 (GeneID 67979) | 1 | -0.91 | enough cells in well | 117 | inactive
Nudt18 (GeneID 213484) | 1 | -0.18 | enough cells in well | 168 | inactive
Ap4b1 (GeneID 67489) | 1 | -0.84 | enough cells in well | 146 | inactive
Ap4b1 (GeneID 67489) | 2 | 0.04 | enough cells in well | 134 | inactive
H2-T13 (GeneID 14963) | 1 | 1.64 | enough cells in well | 204 | inactive
Negr1 (GeneID 320840) | 1 | -1.42 | enough cells in well | 139 | active
Tnfrsf18 (GeneID 21936) | 1 | -0.37 | enough cells in well | 204 | inactive
Or7g30 (GeneID 258520) | 1 | -1.53 | enough cells in well | 63.6 | active
Hyal1 (GeneID 15586) | 1 | 0.38 | enough cells in well | 246 | inactive
Pmfbp1 (GeneID 56523) | 1 | – | fewer than 50 cells per well; well left out of calls | 77.1 | inactive
Rfx5 (GeneID 53970) | 1 | -0.65 | enough cells in well | 209 | inactive
Spaca7 (GeneID 78634) | 1 | – | fewer than 50 cells per well; well left out of calls | 181 | inactive
Apbb2 (GeneID 11787) | 1 | 1.65 | enough cells in well | 298 | inactive
Or52b1 (GeneID 56860) | 1 | 1.38 | enough cells in well | 120 | inactive
Hif1a (GeneID 15251) | 1 | -0.93 | enough cells in well | 186 | inactive
Kcna4 (GeneID 16492) | 1 | -0.76 | enough cells in well | 186 | inactive
Nucleolin (GeneID 17975) | 1 | -0.37 | enough cells in well | 127 | inactive
Cyb561a3 (GeneID 225912) | 1 | 0.29 | enough cells in well | 126 | inactive
Or6c76 (GeneID 258321) | 1 | 3.01 | enough cells in well | 159 | active
Hdac2 (GeneID 15182) | 1 | – | fewer than 50 cells per well; well left out of calls | 111 | inactive
